Assay results published in patent US20250382361A1, “AFFIBODIES, HYDROGELS CONTAINING AFFIBODIES, AND USES THEREOF” (University of Oregon, priority 2024, published 2025).
No constants are given. Whether binding was seen depends on the method and setting. Some results given as binding are weak or reduced against the parent protein; the word gives no strength.

Chains of the proteins cited; added tags and fusions are not shown. Lines headed by an entry give the natural chain unless they say otherwise; changes in a name come on top. A line that says so, or that is headed by a name, gives the form on record, which may keep a tag or linker. Residues count along the entry.
UniProt P09038, residues 143-288: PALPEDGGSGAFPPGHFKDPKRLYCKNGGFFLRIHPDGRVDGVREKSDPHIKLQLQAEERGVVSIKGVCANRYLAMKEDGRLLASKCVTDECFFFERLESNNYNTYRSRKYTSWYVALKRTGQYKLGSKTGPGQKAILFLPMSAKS
Recombinant VEGF165 (vascular endothelial growth factor) (P15692, form named): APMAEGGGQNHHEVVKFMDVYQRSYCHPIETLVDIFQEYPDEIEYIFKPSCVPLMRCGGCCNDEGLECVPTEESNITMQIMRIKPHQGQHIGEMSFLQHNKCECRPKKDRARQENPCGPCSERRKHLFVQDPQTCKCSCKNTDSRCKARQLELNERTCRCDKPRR
UniProt P04141, residues 18-144: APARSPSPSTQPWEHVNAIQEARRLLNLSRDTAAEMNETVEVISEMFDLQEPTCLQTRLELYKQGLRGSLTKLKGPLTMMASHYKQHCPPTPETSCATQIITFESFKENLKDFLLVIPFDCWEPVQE

T1: Glial derived neurotrophic factor (GDNF) (UniProt P39905)
T1 sequence (looked up): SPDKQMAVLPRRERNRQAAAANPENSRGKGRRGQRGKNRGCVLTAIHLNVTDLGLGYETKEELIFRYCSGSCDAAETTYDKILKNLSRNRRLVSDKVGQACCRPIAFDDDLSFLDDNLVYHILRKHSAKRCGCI


The binders below were run against Recombinant FGF-2 (fibroblast growth factor 2) (UniProt P09038) (assay: yeast surface display sorting (MACS, FACS)).

| binding | Binder |
| --- | --- |
| binds | FGF-2 affibody FG3-C3 (SEQ ID NO: 51) (designed binder) AEAKYAKELDAAYVVIYFLPNLTHCQMVAFLHALSDDPSQSSELLSEAKKLNDSQAPK |
| binds | FGF-2 affibody FG4-C4 (SEQ ID NO: 55) (designed binder) AEAKYAKEGCTAFLEIAALPNLTGYQRDAFIEALFDDPSQSSELLSEAKKLNDSQAPK |
| binds | FGF-2 affibody FG1_C2 (SEQ ID NO: 46) (designed binder) AEAKYNKEMPDANCQIAFLPNLTQYQVPAFIYALCNDPSQSSELLSEAKKLNDSQAPK |
| binds | FGF-2 affibody FG3_C2 (SEQ ID NO: 50) (designed binder) AEAKYYKEGYNAIVEIRCLPNLTDCQVAAFIDALDDDPSQSSELLSEAKKLNDSQAPK |
| binds | FGF-2 affibody FG1_C4 (SEQ ID NO: 48) (designed binder) AEAKYSKEGFYADWVIPVLPNLTRKQRVAFHDALHNDPSQSSELLSEAKKLNDSQAPK |
| binds | FGF-2 affibody FG2-C3 (SEQ ID NO: 49) (designed binder) AEAKYAKEWLDAIDVIGYLPNLTDFQRGAFYDALNDDPSQSSELLSEAKKLNDSQAPK |
| binds | FGF-2 affibody FG1_C3 (SEQ ID NO: 47) (designed binder) AEAKYNKEGEDATTQIGSLPNLTQAQKHAFAVALGNDPSQSSELLSEAKKLNDSQAPK |
| binds | FGF-2 affibody FG4-C1 (SEQ ID NO: 52) (designed binder) AEAKYSKEVYSAYDVIFALPNLTQYQVLAFFDALCDDPSQSSELLSEAKKLNDSQAPK |
| binds | FGF-2 affibody FG1_C1 (SEQ ID NO: 45) (designed binder) AEAKYTKEGCDAYTEIVDLPNLTGYQRRAFYWALENDPSQSSELLSEAKKLNDSQAPK |
| binds | FGF-2 affibody FG4-C3 (SEQ ID NO: 54) (designed binder) AEAKYAKEGFNAVNVIWPLPNLTADQVCAFICALADDPSQSSELLSEAKKLNDSQAPK |
| binds | FGF-2 affibody FG4-C2 (SEQ ID NO: 53) (designed binder) AEAKYAKERLTAVCSIVALPNLTEGQMVAFDDALHDDPSQSSELLSEAKKLNDSQAPK |

Each binder was assayed against Recombinant VEGF165 (vascular endothelial growth factor) (UniProt P15692) (assay: yeast surface display sorting (MACS, FACS)).

| binding | Binder |
| --- | --- |
| binds | VEGF affibody L4 (SEQ ID NO: 25) (designed binder) AEAKYAKELDDAFFEIASLPNLTGFQLHAFAVALGNDPSQSSELLSEAKKLNDSQAPK |
| binds | VEGF affibody L5 (SEQ ID NO: 26) (designed binder) AEAKYNKERDSAYSVIWGLPNLTDSQKAAFGYALYNDPSQSSELLSEAKKLNDSQAPK |
| binds | VEGF affibody TM7 (SEQ ID NO: 41) (designed binder) AEAKYTKEVDYAACVIAYLPNLTGVQVYAFYRALADDPSQSSELLSEAKKLNDSQAPK |
| binds | VEGF affibody BM2 (SEQ ID NO: 31) (designed binder) AEAKYAKEWFYAYHVIYDLPNLTGFQKHAFYLALYDDPSQSSELLSEAKKLNDSQAPK |
| binds | VEGF affibody TM6 (SEQ ID NO: 40) (designed binder) AEAKYYKEWVDAYLVIDSLPNLTRLQVEAFVFALVNDPSQSSELLSEAKKLNDSQAPK |
| binds | VEGF affibody BR7 (SEQ ID NO: 38) (designed binder) AEAKYAKELLNAFDEIYGLPNLTVGQRMAFCDALINDPSQSSELLSEAKKLNDSQAPK |
| binds | VEGF affibody TM4 (SEQ ID NO: 39) (designed binder) AEAKYYKEWYDAFVVIDALPNLTAYQREAFIFALVNDPSQSSELLSEAKKLNDSQAPK |
| binds | VEGF affibody BM7 (SEQ ID NO: 33) (designed binder) AEAKYAKEGATAFGSIPYLPNLTDVQRYAFIVALLDDPSQSSELLSEAKKLNDSQAPK |
| binds | VEGF affibody L8 (SEQ ID NO: 28) (designed binder) AEAKYNKEWYDAILEIGFLPNLTGHQRDAFSDALVDDPSQSSELLSEAKKLNDSQAPK |
| binds | VEGF affibody BR6 (SEQ ID NO: 37) (designed binder) AEAKYAKEWEDAINEIWCLPNLTEYQRIAFVSALYNDPSQSSELLSEAKKLNDSQAPK |
| binds | VEGF affibody BR3 (SEQ ID NO: 35) (designed binder) AEAKYTKERDDASLEIAYLPNLTPYQLMAFFFALSNDPSQSSELLSEAKKLNDSQAPK |
| binds | VEGF affibody BR1 (SEQ ID NO: 34) (designed binder) AEAKYTKEWYAAVVQIGYLPNLTAFQRAAFSFALSNDPSQSSELLSEAKKLNDSQAPK |
| binds | VEGF affibody L3 (SEQ ID NO: 24) (designed binder) AEAKYYKERYAANYSIWVLPNLTLLQRFAFFFALSNDPSQSSELLSEAKKLNDSQAPK |
| binds | VEGF affibody L1 (SEQ ID NO: 23) (designed binder) AEAKYYKEWNAAYVVINGLPNLTRRQREAFVHALVDDPSQSSELLSEAKKLNDSQAPK |

The binders below were run against Granulocyte-macrophage colony-stimulating factor (GM-CSF), biotinylated (UniProt P04141) (assay: yeast surface display, flow cytometry).

| binding | Binder |
| --- | --- |
| binds | GM-CSF affibody GM3-C2 (SEQ ID NO: 18), yeast-displayed (designed binder) AEAKYNKEWYNAISVIFYLPNLTGFQRAAFVDALGDDPSQSSELLSEAKKLNDSQAPK |

What follows are binders tested against T1, Glial derived neurotrophic factor (GDNF) (assay: yeast surface display, flow cytometry).

| binding | Binder |
| --- | --- |
| binds | GDNF affibody B4 (SEQ ID NO: 68) (designed binder) AEAKYTKERHDATLVIHVLPNLTDARILAFIVALSNDPSQSSELLSEAKKLNDSQAPK |
| binds | GDNF affibody A1 (SEQ ID NO: 65) (designed binder) AEAKYNKEQVYASDSIQVLPNLTATQRVAFDPALHNDPSQSSELLSEAKKLNDSQAPK |
| binds | GDNF affibody B7 (SEQ ID NO: 70) (designed binder) AEAKYSKEWYDAYLVIFVLPNLTQFQRPAFPPALKNDPSQSSELLSEAKKLNDSQAPK |
| binds | GDNF affibody A3 (SEQ ID NO: 67) (designed binder) AEAKYAKEWTTANYSIGVLPNLTLTQRYAFETALFDDPSQSSELLSEAKKLNDSQAPK |
| binds | GDNF affibody A2 (SEQ ID NO: 66) (designed binder) AEAKYNKEKPNAVGEISVLPNLTEFQMVAFIFALVNDPSQSSELLSEAKKLNDSQAPK |
